The exact form of at least one protein or probe is not confirmed. At least one result comes from cells or an extract, where the contact may be indirect. For some assays here: A negative result means that nothing was seen under these conditions. At least one verdict was read from the data and is not stated in words by the source.
Columns and labels:
YY1 = YY1 (UniProt P25490); assay: EMSA; details: Myc or Ubwt transfected HeLa nuclear extract, comparable bands; EMSA: 5 ug HeLa nuclear extract, 3 ug poly(dI-dC), 10 min preincubation on ice, 4 nM probe, 30 min; protein in an extract; label: 5'-32P
Sp3 [1] = target: Sp3 (UniProt Q02447); assay: EMSA; details: Myc or Ubwt transfected HeLa nuclear extract, no difference, complexes competed by 50x cold wild type; EMSA: 5 ug HeLa nuclear extract, 3 ug poly(dI-dC), 10 min preincubation on ice, 4 nM probe, 30 min; protein in an extract; label: 5'-32P (probe), unlabeled as competitor
Sp1 [2] = target: Sp1 (UniProt P08047); assay: EMSA; details: Myc or Ubwt transfected HeLa nuclear extract, no difference, complexes competed by 50x cold wild type; EMSA: 5 ug HeLa nuclear extract, 3 ug poly(dI-dC), 10 min preincubation on ice, 4 nM probe, 30 min; protein in an extract; label: 5'-32P (probe), unlabeled as competitor
Sp3 [3] = target: Sp3 (UniProt Q02447); assay: competition with a labelled probe; details: 50-fold excess cold mutant did not prevent complexes on N1; EMSA: 5 ug HeLa nuclear extract, 3 ug poly(dI-dC), 10 min preincubation on ice, 4 nM probe, 30 min; protein in an extract; label: unlabeled competitor
Sp1 [4] = target: Sp1 (UniProt P08047); assay: competition with a labelled probe; details: 50-fold excess cold mutant did not prevent complexes on N1; EMSA: 5 ug HeLa nuclear extract, 3 ug poly(dI-dC), 10 min preincubation on ice, 4 nM probe, 30 min; protein in an extract; label: unlabeled competitor

By UniProt entry, the sequences of proteins in these tests, tags left out. Where a name states a change or a piece, a line headed by the entry shows the natural chain unless it says otherwise.
UniProt P25490, whole entry: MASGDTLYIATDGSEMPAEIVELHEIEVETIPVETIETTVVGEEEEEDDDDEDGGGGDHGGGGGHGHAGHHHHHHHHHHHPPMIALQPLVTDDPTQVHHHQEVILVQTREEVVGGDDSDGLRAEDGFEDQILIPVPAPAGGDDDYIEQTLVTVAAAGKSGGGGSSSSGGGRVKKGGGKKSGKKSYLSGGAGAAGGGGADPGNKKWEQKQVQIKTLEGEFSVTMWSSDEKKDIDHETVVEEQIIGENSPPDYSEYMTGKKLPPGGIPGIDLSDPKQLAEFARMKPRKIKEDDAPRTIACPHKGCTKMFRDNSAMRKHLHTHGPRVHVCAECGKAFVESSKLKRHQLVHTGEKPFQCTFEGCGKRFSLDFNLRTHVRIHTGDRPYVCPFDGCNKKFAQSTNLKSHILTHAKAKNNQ
UniProt Q02447: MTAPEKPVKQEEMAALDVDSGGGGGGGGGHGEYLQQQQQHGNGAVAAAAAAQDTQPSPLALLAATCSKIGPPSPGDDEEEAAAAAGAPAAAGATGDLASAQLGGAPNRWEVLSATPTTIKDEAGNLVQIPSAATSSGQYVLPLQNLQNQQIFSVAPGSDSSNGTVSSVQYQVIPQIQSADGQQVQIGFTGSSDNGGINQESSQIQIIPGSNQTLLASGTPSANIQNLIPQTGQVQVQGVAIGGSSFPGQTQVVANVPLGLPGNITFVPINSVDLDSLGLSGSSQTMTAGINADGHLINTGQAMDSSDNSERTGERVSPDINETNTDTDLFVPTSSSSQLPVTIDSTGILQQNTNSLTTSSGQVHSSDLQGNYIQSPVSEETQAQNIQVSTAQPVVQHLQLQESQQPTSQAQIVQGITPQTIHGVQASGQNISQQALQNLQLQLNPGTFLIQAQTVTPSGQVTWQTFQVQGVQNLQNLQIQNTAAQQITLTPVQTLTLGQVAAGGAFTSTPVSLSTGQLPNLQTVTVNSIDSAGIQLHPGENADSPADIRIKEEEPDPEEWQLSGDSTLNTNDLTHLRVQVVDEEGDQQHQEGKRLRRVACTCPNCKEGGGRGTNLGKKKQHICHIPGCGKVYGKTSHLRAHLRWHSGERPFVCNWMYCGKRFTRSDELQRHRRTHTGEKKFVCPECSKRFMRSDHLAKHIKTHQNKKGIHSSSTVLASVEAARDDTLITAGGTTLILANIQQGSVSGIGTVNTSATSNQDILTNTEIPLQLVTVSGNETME
UniProt P08047, whole entry: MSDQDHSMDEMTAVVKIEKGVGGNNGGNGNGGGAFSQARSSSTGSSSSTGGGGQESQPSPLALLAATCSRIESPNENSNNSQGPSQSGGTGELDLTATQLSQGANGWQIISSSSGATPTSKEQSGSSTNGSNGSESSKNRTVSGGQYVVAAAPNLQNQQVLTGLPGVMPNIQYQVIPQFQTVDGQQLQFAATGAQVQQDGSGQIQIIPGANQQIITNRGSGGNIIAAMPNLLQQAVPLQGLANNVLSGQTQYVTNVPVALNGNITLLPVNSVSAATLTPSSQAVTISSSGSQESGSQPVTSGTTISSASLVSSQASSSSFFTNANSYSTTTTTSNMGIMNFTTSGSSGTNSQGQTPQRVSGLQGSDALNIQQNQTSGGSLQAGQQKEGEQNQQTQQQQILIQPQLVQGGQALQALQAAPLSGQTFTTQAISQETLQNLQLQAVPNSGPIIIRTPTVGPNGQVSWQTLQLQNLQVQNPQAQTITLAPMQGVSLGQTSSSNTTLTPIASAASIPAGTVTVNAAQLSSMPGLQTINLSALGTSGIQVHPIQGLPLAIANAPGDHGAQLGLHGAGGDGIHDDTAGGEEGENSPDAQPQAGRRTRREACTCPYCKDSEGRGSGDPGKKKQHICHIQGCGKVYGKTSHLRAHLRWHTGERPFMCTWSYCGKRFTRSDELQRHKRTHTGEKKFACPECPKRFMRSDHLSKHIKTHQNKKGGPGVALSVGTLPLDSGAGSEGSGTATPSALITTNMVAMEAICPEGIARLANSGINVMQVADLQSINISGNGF

AGCAAAATGGCGGCTGTTCCCGAGTCT (double strand) [YY1 intron probe]
binding result (YY1): binds

TTTTGGCGCCTCCCGCGGGCGCCCCCCTCCTCACGGCGAG (double strand) [Sp1_wt (hUBC Sp1, -319/-280)]
binding result (Sp3 [1]): binds | binding result (Sp1 [2]): binds

TTTTGGAGAATCCCGCGGGCGCCTACGTCCTCACGGCGAG (double strand) [Sp1_mut (human UbCmut2x)]
binding result (Sp3 [3]): no binding | binding result (Sp1 [4]): no binding

— PMC6898720
